Experimental data: the supplement of paper PMC10849652
The list shows a part of the results.

The chains behind the UniProt entries cited, without tags or fusion partners. Where a name states a change or a piece, a line headed by the entry shows the natural chain unless it says otherwise.
UniProt Q92738: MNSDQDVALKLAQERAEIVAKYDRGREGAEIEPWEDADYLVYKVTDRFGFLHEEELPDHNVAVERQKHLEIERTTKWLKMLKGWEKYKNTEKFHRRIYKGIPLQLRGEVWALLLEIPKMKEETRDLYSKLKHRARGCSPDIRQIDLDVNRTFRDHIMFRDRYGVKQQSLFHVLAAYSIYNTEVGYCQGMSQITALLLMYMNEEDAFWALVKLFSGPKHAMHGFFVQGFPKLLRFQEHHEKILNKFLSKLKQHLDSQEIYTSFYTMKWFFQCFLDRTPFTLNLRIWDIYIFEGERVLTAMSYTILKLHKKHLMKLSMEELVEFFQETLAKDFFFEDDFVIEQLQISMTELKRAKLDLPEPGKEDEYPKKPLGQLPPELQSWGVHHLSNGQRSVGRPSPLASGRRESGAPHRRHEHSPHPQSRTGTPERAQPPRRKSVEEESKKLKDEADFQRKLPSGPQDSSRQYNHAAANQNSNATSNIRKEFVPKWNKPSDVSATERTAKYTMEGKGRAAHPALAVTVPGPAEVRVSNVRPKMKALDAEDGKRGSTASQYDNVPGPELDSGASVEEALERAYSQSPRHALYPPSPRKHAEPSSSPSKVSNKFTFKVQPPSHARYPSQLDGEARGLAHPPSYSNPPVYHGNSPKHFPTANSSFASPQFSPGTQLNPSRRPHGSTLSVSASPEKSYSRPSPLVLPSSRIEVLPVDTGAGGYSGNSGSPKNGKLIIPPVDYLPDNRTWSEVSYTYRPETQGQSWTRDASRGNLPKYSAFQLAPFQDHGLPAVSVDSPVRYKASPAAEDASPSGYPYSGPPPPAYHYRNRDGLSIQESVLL
UniProt Q9BTM9: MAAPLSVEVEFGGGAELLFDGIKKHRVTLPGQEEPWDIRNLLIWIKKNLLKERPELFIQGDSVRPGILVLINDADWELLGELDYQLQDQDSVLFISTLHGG
UniProt P61758, whole entry, looked up: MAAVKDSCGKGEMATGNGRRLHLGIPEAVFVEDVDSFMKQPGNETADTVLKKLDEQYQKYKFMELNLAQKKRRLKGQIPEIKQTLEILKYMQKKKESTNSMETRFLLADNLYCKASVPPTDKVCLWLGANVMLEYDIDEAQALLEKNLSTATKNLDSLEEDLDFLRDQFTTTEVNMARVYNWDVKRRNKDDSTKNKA
UniProt Q8IX04: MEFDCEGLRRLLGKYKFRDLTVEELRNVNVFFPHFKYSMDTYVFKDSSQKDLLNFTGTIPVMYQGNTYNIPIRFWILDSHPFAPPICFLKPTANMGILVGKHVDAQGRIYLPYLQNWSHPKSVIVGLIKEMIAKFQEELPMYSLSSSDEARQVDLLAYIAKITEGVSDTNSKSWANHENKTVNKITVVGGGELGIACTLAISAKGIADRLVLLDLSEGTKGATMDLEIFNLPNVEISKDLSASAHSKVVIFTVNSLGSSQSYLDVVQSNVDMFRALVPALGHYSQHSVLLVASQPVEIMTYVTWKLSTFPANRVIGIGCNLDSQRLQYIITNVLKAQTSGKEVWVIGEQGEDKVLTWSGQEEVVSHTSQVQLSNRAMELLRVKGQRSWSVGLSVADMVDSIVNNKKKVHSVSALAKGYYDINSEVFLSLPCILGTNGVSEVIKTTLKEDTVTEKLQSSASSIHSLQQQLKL
UniProt Q16851: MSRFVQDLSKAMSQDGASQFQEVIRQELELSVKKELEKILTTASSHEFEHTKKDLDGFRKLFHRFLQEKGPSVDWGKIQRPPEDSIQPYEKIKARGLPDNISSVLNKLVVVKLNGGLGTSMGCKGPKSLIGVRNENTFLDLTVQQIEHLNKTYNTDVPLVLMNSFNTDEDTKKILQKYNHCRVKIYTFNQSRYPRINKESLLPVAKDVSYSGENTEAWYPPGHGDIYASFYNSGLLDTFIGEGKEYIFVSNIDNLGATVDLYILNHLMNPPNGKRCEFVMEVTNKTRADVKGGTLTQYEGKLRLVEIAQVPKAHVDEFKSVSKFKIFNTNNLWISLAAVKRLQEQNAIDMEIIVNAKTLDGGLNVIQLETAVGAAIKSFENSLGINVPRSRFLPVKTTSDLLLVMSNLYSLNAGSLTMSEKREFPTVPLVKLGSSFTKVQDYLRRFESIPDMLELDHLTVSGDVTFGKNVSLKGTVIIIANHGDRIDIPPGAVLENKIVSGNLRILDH
UniProt Q9HAU5: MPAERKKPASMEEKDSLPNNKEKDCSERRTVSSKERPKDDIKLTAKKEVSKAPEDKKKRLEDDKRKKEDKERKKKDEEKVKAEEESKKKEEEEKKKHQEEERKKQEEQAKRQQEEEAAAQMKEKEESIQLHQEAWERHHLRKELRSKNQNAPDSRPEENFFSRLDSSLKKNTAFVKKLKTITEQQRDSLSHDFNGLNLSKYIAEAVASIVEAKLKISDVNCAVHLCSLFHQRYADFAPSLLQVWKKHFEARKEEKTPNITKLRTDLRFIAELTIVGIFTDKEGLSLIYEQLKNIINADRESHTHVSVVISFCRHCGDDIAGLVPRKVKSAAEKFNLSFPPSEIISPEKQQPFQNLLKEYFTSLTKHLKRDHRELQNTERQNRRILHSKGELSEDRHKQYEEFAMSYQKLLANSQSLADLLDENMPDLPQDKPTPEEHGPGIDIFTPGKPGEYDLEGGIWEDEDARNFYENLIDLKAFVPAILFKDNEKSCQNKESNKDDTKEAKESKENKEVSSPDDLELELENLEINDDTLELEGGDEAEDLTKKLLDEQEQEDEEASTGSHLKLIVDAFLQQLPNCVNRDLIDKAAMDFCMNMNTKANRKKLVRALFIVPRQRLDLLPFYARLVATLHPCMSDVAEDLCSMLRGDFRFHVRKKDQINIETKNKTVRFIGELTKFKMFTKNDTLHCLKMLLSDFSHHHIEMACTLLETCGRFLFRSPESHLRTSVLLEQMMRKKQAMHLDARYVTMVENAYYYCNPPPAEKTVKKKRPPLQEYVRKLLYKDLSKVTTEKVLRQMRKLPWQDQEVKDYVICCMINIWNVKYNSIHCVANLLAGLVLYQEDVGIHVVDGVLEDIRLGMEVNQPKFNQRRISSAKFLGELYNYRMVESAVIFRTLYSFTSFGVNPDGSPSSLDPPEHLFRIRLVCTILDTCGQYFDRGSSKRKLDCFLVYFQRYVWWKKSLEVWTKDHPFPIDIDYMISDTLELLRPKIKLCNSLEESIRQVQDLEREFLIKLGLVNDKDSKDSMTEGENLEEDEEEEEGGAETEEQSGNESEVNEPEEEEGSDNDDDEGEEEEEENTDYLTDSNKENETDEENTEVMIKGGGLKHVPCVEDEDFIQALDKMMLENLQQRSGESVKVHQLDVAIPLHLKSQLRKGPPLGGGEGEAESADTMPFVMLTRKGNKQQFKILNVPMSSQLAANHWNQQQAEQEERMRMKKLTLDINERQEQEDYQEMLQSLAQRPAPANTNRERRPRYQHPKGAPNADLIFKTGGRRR
UniProt Q9NRR5, whole entry, looked up: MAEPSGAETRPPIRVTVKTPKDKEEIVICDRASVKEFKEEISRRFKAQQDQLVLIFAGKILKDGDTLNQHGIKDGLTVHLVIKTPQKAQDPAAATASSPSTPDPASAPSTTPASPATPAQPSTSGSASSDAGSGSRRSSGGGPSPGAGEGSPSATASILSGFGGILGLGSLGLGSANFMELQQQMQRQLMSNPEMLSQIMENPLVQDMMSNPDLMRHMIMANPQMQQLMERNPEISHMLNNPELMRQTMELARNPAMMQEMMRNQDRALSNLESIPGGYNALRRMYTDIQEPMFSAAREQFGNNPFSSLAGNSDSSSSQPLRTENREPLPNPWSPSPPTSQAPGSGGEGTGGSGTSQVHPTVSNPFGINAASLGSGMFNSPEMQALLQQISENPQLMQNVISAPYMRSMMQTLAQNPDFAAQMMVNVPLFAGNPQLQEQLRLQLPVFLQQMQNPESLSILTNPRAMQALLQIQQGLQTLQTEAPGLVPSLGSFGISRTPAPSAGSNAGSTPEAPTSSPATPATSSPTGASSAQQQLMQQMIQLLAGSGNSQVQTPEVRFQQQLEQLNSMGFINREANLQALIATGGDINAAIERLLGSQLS
UniProt Q9NZ43: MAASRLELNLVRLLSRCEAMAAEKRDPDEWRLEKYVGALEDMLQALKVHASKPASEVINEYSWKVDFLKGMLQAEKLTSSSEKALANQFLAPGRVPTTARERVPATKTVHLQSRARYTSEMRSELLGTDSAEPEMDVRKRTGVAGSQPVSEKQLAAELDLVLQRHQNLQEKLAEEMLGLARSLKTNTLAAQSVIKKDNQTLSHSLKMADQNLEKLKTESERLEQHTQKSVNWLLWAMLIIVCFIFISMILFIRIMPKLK
UniProt Q9UMX0, whole entry, looked up: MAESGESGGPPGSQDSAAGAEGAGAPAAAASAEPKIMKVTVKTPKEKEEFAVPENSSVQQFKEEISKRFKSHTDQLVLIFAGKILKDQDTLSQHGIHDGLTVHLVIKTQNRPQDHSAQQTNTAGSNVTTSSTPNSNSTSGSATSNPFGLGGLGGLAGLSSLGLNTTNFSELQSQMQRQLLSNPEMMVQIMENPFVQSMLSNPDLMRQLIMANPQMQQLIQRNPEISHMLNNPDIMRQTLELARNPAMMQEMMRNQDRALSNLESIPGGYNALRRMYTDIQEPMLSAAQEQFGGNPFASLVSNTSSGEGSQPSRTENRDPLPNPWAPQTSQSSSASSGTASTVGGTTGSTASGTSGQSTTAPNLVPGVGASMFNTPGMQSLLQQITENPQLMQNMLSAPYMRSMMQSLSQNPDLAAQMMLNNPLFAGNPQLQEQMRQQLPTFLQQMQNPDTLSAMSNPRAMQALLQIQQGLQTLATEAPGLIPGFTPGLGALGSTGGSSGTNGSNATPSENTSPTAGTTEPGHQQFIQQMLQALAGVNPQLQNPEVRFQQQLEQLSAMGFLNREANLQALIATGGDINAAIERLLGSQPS
UniProt Q9Y5J1: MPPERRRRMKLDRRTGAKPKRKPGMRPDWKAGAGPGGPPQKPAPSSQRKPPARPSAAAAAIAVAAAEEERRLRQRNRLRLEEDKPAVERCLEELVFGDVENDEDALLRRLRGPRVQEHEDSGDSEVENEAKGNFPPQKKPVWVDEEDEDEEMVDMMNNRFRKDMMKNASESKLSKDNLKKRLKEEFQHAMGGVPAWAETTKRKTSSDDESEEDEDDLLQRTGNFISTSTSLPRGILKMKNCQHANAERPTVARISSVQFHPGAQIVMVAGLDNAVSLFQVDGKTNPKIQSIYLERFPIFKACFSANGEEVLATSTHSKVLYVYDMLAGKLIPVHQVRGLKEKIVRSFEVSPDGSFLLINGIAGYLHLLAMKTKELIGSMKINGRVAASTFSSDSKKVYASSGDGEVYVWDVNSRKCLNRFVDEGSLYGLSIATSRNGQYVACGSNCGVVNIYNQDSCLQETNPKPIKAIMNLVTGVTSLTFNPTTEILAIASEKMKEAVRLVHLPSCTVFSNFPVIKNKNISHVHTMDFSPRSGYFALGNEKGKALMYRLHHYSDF
UniProt Q9NVA1: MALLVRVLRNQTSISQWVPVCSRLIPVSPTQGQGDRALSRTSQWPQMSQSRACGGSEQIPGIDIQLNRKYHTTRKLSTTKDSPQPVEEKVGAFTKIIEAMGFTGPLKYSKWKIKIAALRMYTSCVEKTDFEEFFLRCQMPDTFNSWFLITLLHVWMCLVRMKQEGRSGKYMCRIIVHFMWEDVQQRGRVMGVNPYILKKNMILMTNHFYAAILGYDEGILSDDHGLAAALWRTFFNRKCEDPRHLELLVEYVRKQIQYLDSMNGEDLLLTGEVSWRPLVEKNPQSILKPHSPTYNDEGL

These targets were tested with c1cn2cc(-c3ccc4cn[nH]c4c3)nc(Nc3ccc(N4CCOCC4)cc3)c2n1 [entospletinib] (assay: log2 fold change, soluble protein after heating vs DMSO (PISA); higher = thermal stabilisation; K562 cells, 10 uM, 30 min; active = over 0.2 and 3.5 SD of the protein, either way, in both replicates (recomputed)).
Procedure, shortened: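 K562 cells (2×10^6 cells/mL) were treated with 10 μM compound for 30 min, and aliquots were heated for 3 min over 48°C-58°C. Pooled aliquots were extracted in PBS with 0.5% NP-40 at 4°C, and the supernatant after 21,000xg for 90 min was measured by TMTpro 16plex LC-MS/MS with channel sums equalised. Reported thermal stability, relative to control samples and from duplicates, is a log2 fold change.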

log2 fold change, inactive:
USP6NL isoform 2 (UniProt Q92738) -0.233
URM1 isoform 2 (UniProt Q9BTM9) -0.008
USP13 (UniProt Q92995) -0.015
UQCRB (UniProt P14927) 0.009
VBP1 (UniProt P61758) -0.006
UBL7 (UniProt Q96S82) -0.027
USP1 (UniProt O94782) 0.109
UGT8 (UniProt Q16880) 0.328
UCHL3 (UniProt P15374) 0.054
UTP15 (UniProt Q8TED0) 0.079
UPF1 (UniProt Q92900) -0.046
VAC14 (UniProt Q08AM6) 0.022
UEVLD (UniProt Q8IX04) -0.042
UGP2 (UniProt Q16851) -0.004
UQCC2 (UniProt Q9BRT2) 0.045
USP20 (UniProt Q9Y2K6) 0.09
UCKL1 (UniProt Q9NWZ5) 0.041
UBR3 isoform 4 (UniProt Q6ZT12) 0.163
UPF2 (UniProt Q9HAU5) 0.196
USP12 (UniProt O75317) -0.022
UBQLN2 (UniProt Q9UHD9) -0.002
UBQLN4 (UniProt Q9NRR5) 0.006
USE1 (UniProt Q9NZ43) 0.037
VAMP8 (UniProt Q9BV40) 0.008
UBQLN1 (UniProt Q9UMX0) 0.094
USP39 (UniProt Q53GS9) 0.04
UTP18 (UniProt Q9Y5J1) 0.109
USP30 (UniProt Q70CQ3) 0.064
UQCC1 (UniProt Q9NVA1) 0.004

Random excerpt: two records from the list
log2 fold change, inactive:
UBL7 (UniProt Q96S82) -0.027
UGP2 (UniProt Q16851) -0.004
